Test results from PubChem BioAssay AID1487 (National Center for Advancing Translational Sciences (NCATS), 2009).
Some of the results follow. These are further read-outs of the screen, such as a control signal, another cell line or another target. No call is given for them. The list favours compounds with an active or inconclusive main result. Words in brackets tell the shape of the fitted curve; partial curves, single points and poor fits give uncertain potencies.

Assay: qHTS Assay for Modulators of Lamin A Splicing
Details: HeLa LMNA splicing GFP/RFP minigene ratio, 48 h
In short: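 S3 HeLa cells stably expressing lamin A-EGFP splicing minigene plus DsRed2, 600 cells/well, 48 h compound exposure at 37C. Laser-scanning cytometry; analysed as GFP (500-530 nm)/RFP (575-640 nm) total intensity ratio; 0.5% DMSO vehicle.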

[1] = measured here: RFP viability control channel
[2] = measured here: GFP splicing reporter channel

SMILES: O=C(NCCCN1CCCC1=O)c1cccc(Oc2ccccc2)c1
- AC50 [1]: 0.0158 µM [rising, full curve, poor fit]

SMILES: CCc1ccccc1NC(=O)C(C)n1c(=O)cc(C)c2c(C)nn(-c3ccccc3)c21 (configuration not stated)
- AC50 [2]: 0.01 µM [falling, full curve, poor fit]

SMILES: O=C(NCC1([N+](=O)[O-])CN(C(=O)c2ccccc2)CN(C(=O)c2ccccc2)C1)c1ccccc1
- AC50 [2]: 7.94 µM [falling, partial curve]

SMILES: Cc1ccc(-n2nnnc2C(Cl)c2nnnn2-c2ccc(C)cc2)cc1
- AC50 [1]: 12.6 µM [rising, single point]

SMILES: Cc1nn2c(COc3ccc(NC(=O)c4ccccc4)cc3)nnc2c2ccccc12
- AC50 [2]: 0.141 µM [falling, partial curve, poor fit]

SMILES: O=C(CN1CCCCC1)NN(Cc1ccccc1)c1ccccc1
- AC50 [1]: 0.02 µM [rising, full curve, poor fit]

SMILES: O=C(C/C=N\OCc1ccc(Cl)cc1Cl)Nc1ccccc1
- AC50 [2]: 39.8 µM [falling, partial curve, poor fit]

SMILES: COc1ccccc1NC(=O)c1c(Nc2ccccc2C)sc(C(=O)Nc2cccc(Cl)c2)c1N
- AC50 [2]: 3.55 µM [falling, partial curve]

SMILES: Cc1ccc2c(CN3CCN(S(=O)(=O)c4ccc5c(c4)OCCO5)CC3)cc(=O)oc2c1C
- AC50 [2]: 7.08 µM [rising, full curve, poor fit]
- AC50 [1]: 6.31 µM [rising, full curve]

SMILES: Cc1c(Cl)cccc1NC(=O)CCCn1nc([N+](=O)[O-])cc1C
- AC50 [2]: 10 µM [falling, partial curve]
- AC50 [1]: 10 µM [falling, partial curve]

SMILES: O=S(=O)(Nc1ncnc2sc3c(c12)CCC3)c1cc(F)ccc1F
- AC50 [1]: 0.2 µM [falling, full curve, poor fit]

SMILES: CC1CCCCN1C(=S)Nc1ccc(OC(F)F)cc1 (configuration not stated)
- AC50 [2]: 17.8 µM [rising, single point]
- AC50 [1]: 35.5 µM [rising, single point]

SMILES: Cc1ccc([N+](=O)[O-])cc1NC(=O)C1CCN(S(C)(=O)=O)CC1
- AC50 [1]: 0.00501 µM [falling, full curve, poor fit]

SMILES: C#CCOCCOCCOCCNc1nc(N2CCOCC2)nc(N2CCN(C(=O)Cn3cc(CCCN=C(N)N)nn3)CC2)n1
- AC50 [2]: 1.12 µM [falling, full curve, poor fit]
- AC50 [1]: 0.178 µM [falling, full curve]

SMILES: O=C1N(CN2CCN(Cc3ccccc3)CC2)c2ccccc2C12OCCCO2
- AC50 [1]: 2.24 µM [falling, partial curve, poor fit]

SMILES: COc1cc(-c2n[nH]c(=S)n2-c2cccc(C(F)(F)F)c2)cc(OC)c1OC
- AC50 [1]: 35.5 µM [rising, single point]

SMILES: CCN(CC)c1ccc(/C=N/NC(=S)NCc2ccc(OC)cc2)cc1
- AC50 [1]: 11.2 µM [rising, partial curve]

SMILES: CCCCOc1ccc(CONS(=O)(=O)c2ccc(NC(C)=O)cc2)cc1Cl
- AC50 [1]: 22.4 µM [rising, partial curve]

SMILES: Nc1ncnc2nc(SCc3ccccc3)[nH]c12
- AC50 [2]: 0.00501 µM [rising, full curve, poor fit]
- AC50 [1]: 0.00501 µM [rising, full curve, poor fit]

SMILES: O=C(c1cccc(C(F)(F)F)c1)N1CCCCCC1
- AC50 [1]: 22.4 µM [rising, partial curve, poor fit]

SMILES: COc1ccc(-c2nnc(SCC(=O)Nc3ccccc3)n2C)cc1
- AC50 [1]: 0.631 µM [rising, partial curve]

SMILES: CC1(C)Cc2c(cnn2-c2ccccc2)-c2c1c1ccccc1n2CC(O)CBr (configuration not stated)
- AC50 [2]: 17.8 µM [rising, single point]
- AC50 [1]: 14.1 µM [rising, partial curve]

SMILES: Cc1ccc(C(=O)CSc2nc3c([nH]2)c(=O)n(C)c(=O)n3C)cc1
- AC50 [2]: 0.00631 µM [rising, full curve, poor fit]
- AC50 [1]: 0.00355 µM [rising, full curve]

SMILES: CC(=O)c1ccc(NC(=O)c2c(C)nn(-c3ccccc3)c2Cl)cc1
- AC50 [2]: 35.5 µM [falling, single point]
- AC50 [1]: 35.5 µM [falling, single point]

SMILES: CC1CC2=C(CC1/C=N/NC(N)=S)C(C)(C)CCC2 (configuration not stated)
- AC50 [2]: 12.6 µM [rising, single point]

SMILES: Nc1nnc(N2CCCCC2)s1
- AC50 [2]: 0.158 µM [rising, full curve, poor fit]

SMILES: CC(C)(C)C(=O)Nc1nc(C2CCCN2S(=O)(=O)c2ccc(Cl)cc2)cs1 (configuration not stated)
- AC50 [1]: 22.4 µM [rising, single point]

SMILES: CCc1ccc2[nH]c(=O)c(CN(Cc3ccc(OC)cc3)Cc3nnnn3CCOC)cc2c1
- AC50 [2]: 35.5 µM [rising, single point]
- AC50 [1]: 0.355 µM [rising, partial curve, poor fit]

SMILES: COc1cccc(-n2c(SCC(=O)NCc3ccco3)nnc2-c2c[nH]c3ccccc23)c1
- AC50 [1]: 14.1 µM [rising, partial curve, poor fit]

SMILES: CCC(C(=O)NC1CCCCC1)n1c(SCc2cccc(C)c2)nc2ccncc21 (configuration not stated)
- AC50 [1]: 12.6 µM [rising, partial curve]

SMILES: COc1cc(/C=N/OCC(=O)NC2CCCCC2)ccc1OCc1ccccc1
- AC50 [2]: 11.2 µM [rising, partial curve]
- AC50 [1]: 15.8 µM [rising, single point]

SMILES: CCCc1cc(N2CCCC(C(=O)NCC)C2)n2ncnc2n1 (configuration not stated)
- AC50 [1]: 3.98 µM [rising, single point]

SMILES: O=C(CCc1ccccc1)N1CCN(c2ccccn2)CC1
- AC50 [2]: 8.91 µM [rising, partial curve]

SMILES: O=C(CCCN1C(=O)c2cccc3cccc(c23)C1=O)N1CCN(c2ccccc2O)CC1
- AC50 [1]: 14.1 µM [rising, partial curve]

SMILES: Cc1ccc(-n2nnnc2SCC(=O)NC2CCCc3ccccc32)c(C)c1 (configuration not stated)
- AC50 [2]: 20 µM [rising, partial curve, poor fit]
- AC50 [1]: 28.2 µM [rising, single point]

SMILES: Cc1cccc(Nc2nnc(SCC3CCCCO3)s2)c1C (configuration not stated)
- AC50 [1]: 25.1 µM [rising, single point]
